± gives the uncertainty stated by the source. Many of these values have a large error.
Assay: self-splicing fitness, log relative to wild type (ln ratio); higher = more splicing; Tetrahymena group I intron in knt gene, E. coli kanamycin selection, DiMSum; sequences stand for … in CUCUCU…GGAGGGAAAAGUUAUCAGGCAUGCACCUGGUAGCUAGUCUUUAAACCAAUAGAUUGCAUCGGUUUAAAAGGCAAGACCGUCAAAUUGCGGGAAAGGGGUCAACAGCCGUUCAGUACCAAGUCUCAGGGGAAACUUUGAGAUGGCCUUGCAAAGGGUAUGGUAAUAAGCUGACGGACAUGGUCCUAACCACGCAGCCAAGUCCUAAGUCAACAGAUCUUCUGUUGAUAUGGAUGCAGUUCACAGACUAAAUGUCGGUCGGGGAAGAUGUAUUCUUCUCAUAAGAUAUAGUCGGACCUCUCCUUAAUGGGAGCUAGCGGAUGAAGUGAUGCAACACUGGAGCCGCUGGGAACUAAUUUGUAUGCGAAAGUAUAUUGAUUAGUUUUGGAGUACUCGUGGUCG
Procedure, shortened: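 Pooled colonies went to amplicon sequencing on an Illumina HiSeq 2500 after six replicate transformations. The plates were LB agar with 100 μg/mL carbenicillin, 50 μM IPTG and 0.2% rhamnose, with or without 25 μg/mL kanamycin, incubated overnight at 37°C or 30°C. The E. coli BL21(DE3) library had all eight P1ex-region intron nucleotides randomised, the intron placed in the knt kanamycin-resistance gene on pET-22b(+). DiMSum fitness is the error-weighted combination of replicate fold changes, kanamycin against none, normalised to wild type.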

Row | Sequence | self-splicing fitness (ln) (30 °C) | self-splicing fitness (ln) (37 °C)
1 | GCGGAGCAAUAUUACGACUA | -2.02 ± 1.2 | -1.37 ± 1.2
2 | AUUAAGCAAUAUUACGAUGU | -0.608 ± 0.07 | -0.0076 ± 0.084
3 | UUCGAGCAAUAUUACGGACA | -2.7 ± 0.22 | -1.79 ± 0.17
4 | UCUGAGCAAUAUUACGAAGC | -4 ± 0.74 | -1.48 ± 0.37
5 | GUGGAGCAAUAUUACGGUCU | -2.12 ± 0.52 | -1.45 ± 0.54
6 | UUAGAGCAAUAUUACGCGUC |  | -3.1 ± 0.61
7 | ACGGAGCAAUAUUACGAAAA | 0.283 ± 0.64 | 
8 | AAGGAGCAAUAUUACGGUGC |  | -2.77 ± 1.1
9 | UAACAGCAAUAUUACGACUC | -0.882 ± 0.084 | -0.517 ± 0.11
10 | CCGUAGCAAUAUUACGCUUC | -4.52 ± 1 | -2.28 ± 0.62
11 | AGGGAGCAAUAUUACGAACG | -2.58 ± 0.39 | -1.9 ± 0.36
12 | ACUGAGCAAUAUUACGGAGA | -3.46 ± 0.21 | -3.08 ± 0.27
13 | GUUGAGCAAUAUUACGCCAG | 0.781 ± 1.1 | -2.03 ± 1.1
14 | GGUUAGCAAUAUUACGGAAG | -2.66 ± 0.8 | 
15 | ACUUAGCAAUAUUACGGUAC | -3.36 ± 0.21 | -3.57 ± 0.42
16 | UCGCAGCAAUAUUACGAUCC | -2.47 ± 0.54 | 
17 | UCUCAGCAAUAUUACGGAGU | -2.81 ± 0.22 | -2.49 ± 0.19
18 | UGUCAGCAAUAUUACGUCGC |  | -2.24 ± 0.64
19 | UAGGAGCAAUAUUACGAUUC |  | -1 ± 0.51
20 | ACGGAGCAAUAUUACGCAGC |  | -3.59 ± 0.73

Row | Sequence | self-splicing fitness (ln) (30 °C) | self-splicing fitness (ln) (37 °C)
21 | UCCGAGCAAUAUUACGAAUC | -3.5 ± 1 | -1.99 ± 0.66
22 | AUGGAGCAAUAUUACGCCCG | -1.37 ± 0.73 | -0.732 ± 0.68
23 | CUACAGCAAUAUUACGCCAC |  | -2.47 ± 1.1
24 | UAGGAGCAAUAUUACGAAAG | -3.75 ± 1 | 
25 | CUUUAGCAAUAUUACGGAUU | -3.83 ± 0.62 | 
26 | CGUAAGCAAUAUUACGUAUU | -4.21 ± 0.52 | 
27 | CUUUAGCAAUAUUACGCAAC |  | -2.97 ± 0.53
28 | UACGAGCAAUAUUACGGAAA | -3.39 ± 1 | 
29 | UGCGAGCAAUAUUACGAGCU | -1.32 ± 1.4 | -1.29 ± 0.63
30 | CGCCAGCAAUAUUACGGGAC | -5.75 ± 0.58 | 
31 | GCUUAGCAAUAUUACGCCAA |  | -2.23 ± 0.57
32 | UGUGAGCAAUAUUACGGAAC | -2.93 ± 1.1 | 
33 | UAGUAGCAAUAUUACGCCUC | -3.9 ± 0.74 | 
34 | GCUUAGCAAUAUUACGUCAC | -4.29 ± 1 | 
35 | GUGCAGCAAUAUUACGGGCC | -2.84 ± 0.53 | -0.728 ± 0.52
36 | AAUUAGCAAUAUUACGGGGC |  | -3.46 ± 0.59
37 | CCUAAGCAAUAUUACGGAGA | -4.32 ± 0.52 | 
38 | CCCUAGCAAUAUUACGAACC | -4.55 ± 0.72 | 
39 | UUAUAGCAAUAUUACGGCCG | -0.763 ± 0.48 | -0.565 ± 0.37
40 | UAAUAGCAAUAUUACGUCUC |  | -1.95 ± 0.51

Row | Sequence | self-splicing fitness (ln) (30 °C) | self-splicing fitness (ln) (37 °C)
41 | GAGAAGCAAUAUUACGCCGC | -1.96 ± 1.2 | 
42 | CUUUAGCAAUAUUACGAGAU | -3.83 ± 0.23 | -2.57 ± 0.22
43 | UCCGAGCAAUAUUACGGUAC |  | -1.84 ± 0.66
44 | UCAAAGCAAUAUUACGGCUC | -3.93 ± 0.74 | 
45 | UGUUAGCAAUAUUACGAUAC | -2.86 ± 0.64 | -1.12 ± 0.55
46 | GCAGAGCAAUAUUACGGAAC | -5.05 ± 0.59 | 
47 | CCCUAGCAAUAUUACGCACG | -3.98 ± 0.37 | -1.74 ± 0.18
48 | GGAAAGCAAUAUUACGUUCC | -2.04 ± 0.57 | -1.85 ± 0.81
49 | UGUUAGCAAUAUUACGACCC | -2.01 ± 0.58 | -1.07 ± 0.74
50 | UGCUAGCAAUAUUACGAGAA | -1.7 ± 0.54 | -2.2 ± 1.1
51 | AUGGAGCAAUAUUACGCCAC |  | -0.964 ± 0.78
52 | CAAGAGCAAUAUUACGGAGA | -2.57 ± 0.28 | -1.91 ± 0.22
53 | CGGGAGCAAUAUUACGCGCG | -1.27 ± 1.4 | 
54 | UUGGAGCAAUAUUACGGCAU | -4.4 ± 0.51 | 
55 | CUUGAGCAAUAUUACGCAAG | -2.37 ± 0.42 | -3.89 ± 0.51
56 | UUAUAGCAAUAUUACGCUGC | -2.37 ± 0.78 | 
57 | CAAGAGCAAUAUUACGUAUA | -4.95 ± 0.3 | -1.92 ± 0.15
58 | CAGAAGCAAUAUUACGCGUC | -3.27 ± 1.1 | 

In another format: results already given
Row,Sequence,self-splicing fitness (ln) (30 °C),self-splicing fitness (ln) (37 °C)
45,UGUUAGCAAUAUUACGAUAC,-2.86 ± 0.64,-1.12 ± 0.55
46,GCAGAGCAAUAUUACGGAAC,-5.05 ± 0.59,

— the supplement of paper PMC7877785
